Values joined by “and” are separate entries in the source; they are usually repeats but may differ in a detail not shown here. Identical values can stand only once.

By UniProt entry, the sequences of proteins in these tests, tags left out. Where a name states a change or a piece, a line headed by the entry shows the natural chain unless it says otherwise.
UniProt P01019: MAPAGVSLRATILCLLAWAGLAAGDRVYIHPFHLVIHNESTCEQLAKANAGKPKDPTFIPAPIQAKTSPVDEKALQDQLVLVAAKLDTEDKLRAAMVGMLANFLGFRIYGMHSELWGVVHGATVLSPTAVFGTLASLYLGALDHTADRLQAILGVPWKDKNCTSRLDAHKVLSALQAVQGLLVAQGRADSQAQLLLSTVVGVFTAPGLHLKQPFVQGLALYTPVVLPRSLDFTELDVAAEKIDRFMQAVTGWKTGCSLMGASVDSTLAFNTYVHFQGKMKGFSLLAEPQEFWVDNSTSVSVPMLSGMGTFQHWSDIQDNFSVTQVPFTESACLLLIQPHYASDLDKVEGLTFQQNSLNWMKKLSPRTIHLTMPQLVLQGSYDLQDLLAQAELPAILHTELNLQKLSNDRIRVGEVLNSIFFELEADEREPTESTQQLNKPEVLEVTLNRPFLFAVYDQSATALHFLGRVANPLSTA

One series concerns PathHunter NHRPro cell lines. The experiment in a line: PathHunter NHRPro cell assay, agonist format (Examples 90-92). Type of series: cell-based. As to conditions: AGTR1, Arrestin. How it is done:
Methodology for Examples 90-92 Cell Handling
PathHunter NHRPro cell lines were expanded from freezer stocks in T25 flasks according to standard procedures and maintained in selective growth media prior to assay.
Once it was established that the cells were healthy and growing normally, cells were passaged from flasks using cell dissociation reagent and seeded into white walled clear bottom 384-well microplates for compound profiling.
For profiling, cells were seeded at a density of 10000 cells per well in a total volume of 20 μL and were allowed to adhere and recover overnight prior to compound addition. Media contained charcoal-dextran filtered serum to reduce the level of hormones present.
Intermediate dilution of compound stocks were generated such that 5 μL of 5× compound could be added to each well with a final DMSO concentration of 1% of total volume.
For profiling compound in agonist mode, the cells were incubated in the presence of compound at 37° C. for 5 hours.
After appropriate compound incubation, assay signal was generated through a single addition of 15 μL (50% v/v) of PathHunter Detection reagent cocktail for agonist and antagonist assays respectively followed by one hour incubation at room temperature.
Microplates were read following signal generation with a PerkinElmer Envision™ instrument for chemiluminescent signal detection.
Dose curves in the presence and absence of compound were plotted using GraphPad Prism or Activity Base.
For the agonist mode, percentage activity was calculated using the following formula: % Activity=100%×(Mean RLU of test sample−mean RLU of vehicle control)/(mean MAX RLU control ligand−mean RLU of vehicle control).
On to “Angiotensin II (DRVYIHPF; Angiotensin-2; UniProt P01019 25-32, looked up)”, for which the Hill was determined as 1.7.

The same series, now with this note: AVPR2, Arrestin.
With `NC(=O)CC[C@@H]1NC(=O)[C@H](Cc2ccccc2)NC(=O)[C@H](Cc2ccc(O)cc2)NC(=O)[C@@H](N)CSSC[C@@H](C(=O)N2CCC[C@H]2C(=O)N[C@@H](CCCN=C(N)N)C(=O)NCC(N)=O)NC(=O)[C@H](CC(N)=O)NC1=O` [Vasopressin], the “Curve Bottom” value is reported as −3.9, the “Curve Top” value is given as 100.5 and the Hill amounted to 1.23.

Still in this series, the particulars now being: RARβ, NHR Protein Interaction.
As for `CC1=C(/C=C/C(C)=C\C=C\C(C)=C\C(=O)O)C(C)(C)CCC1` [9 Cis Retanoic acid], the “Curve Bottom” value was 0; the “Curve Top” value was 100 and 108.3; the Hill was 0.87 and 1.21.

As for `COc1ccc(-c2ccc3cc(C(=O)O)ccc3c2)cc1C12CC3CC(CC(C3)C1)C2` [Adapalene], the “Curve Bottom” value came to 0, the “Curve Top” value came to 134.9 and the Hill came to 1.02.

For the molecule `COc1ccc(-c2ccc3cc(C=NO)ccc3c2)cc1C12CC3CC(CC(C3)C1)C2` [Compound 5a, 6-(3-(Adamantan-1-yl)-4-methoxyphenyl)-2-naphthaldehyde oxime], the “Curve Bottom” value stood at 6.5, the “Curve Top” value is listed as 45 and the Hill was found to be 0.71.

In the case of `CON=Cc1ccc2cc(-c3ccc(OC)c(C45CC6CC(CC(C6)C4)C5)c3)ccc2c1` [Compound 5b, 6-(3-(Adamantan-1-yl)-4-methoxyphenyl)-2-naphthaldehyde O-methyl oxime], the “Curve Bottom” value came out at 5.5, the “Curve Top” value came out at 80 and the Hill was determined as 0.79.

As to `COc1ccc(-c2ccc3cc(C=O)ccc3c2)cc1C12CC3CC(CC(C3)C1)C2` [Formula 135; Z is C(O)H], the “Curve Bottom” value is listed as 0, the “Curve Top” value stood at 112.4 and the Hill amounted to 1.72.

On to `COc1ccc(-c2ccc3cc(CO)ccc3c2)cc1C12CC3CC(CC(C3)C1)C2` [Formula 135; Z is CH2OH], for which the “Curve Bottom” value turned out to be 0, the “Curve Top” value is 127 and the Hill came to 1.16.
